From PubChem BioAssay AID493014 (National Center for Advancing Translational Sciences (NCATS), 2011) come the findings set out here.

The list shows a part of the results. Shown are side measurements of this screen, not its main read-out; they come without a call. Most of these compounds were active or inconclusive in the main read-out, so they are no random draw. Words in brackets tell the shape of the fitted curve; partial curves, single points and poor fits give uncertain potencies.

The assay can be described thus: qHTS Assay to Find Inhibitors of Chronic Active B-Cell Receptor Signaling. The note with it: ABC-DLBCL IkBa-CBG/CBR reporter, luminescence ratio (green luciferase fused to IkBa over red control in TMD8 lymphoma cells), 4 h. In short, it runs like this:
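TMD8 human ABC-DLBCL cells with doxycycline-inducible IκBα–green luciferase fusion and unfused red luciferase, in 0.5% FBS medium; compounds up to 46 uM, 4 h at 37C. Green/red luminescence ratio, filter-overlap corrected, fitted to concentration-response curves.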
For orientation: Quantitative high-throughput screening tests each substance at several concentrations.

The mark [1] stands for this setting: measured here: CBR red luminescence, cell number.
Where [2] appears, read: measured here: IkBa-CBG green luminescence.

Turning to `Cc1ccc(-c2cc(-c3n[nH]c(=S)o3)c3ccccc3n2)cc1`, the AC50 (in general, the concentration giving half of the maximal activity seen) under setting [1] is 1.84 µM [rising, full curve]. Turning to `NS(=O)(=O)c1ccc2nc(NC(=O)C3=COCCO3)sc2c1`, the half-maximal activity concentration (AC50) under setting [1] is 35.5 µM [falling, single point]. Consider `O=C(Nc1c(Cl)cccc1Cl)c1cc(=O)n(Cc2ccccc2)c(=O)[nH]1`, for which the half-maximal activity concentration (AC50) under setting [1] is 29.1 µM [rising, single point]. Regarding `COc1ccc(CNc2cccc(F)c2)cc1Br`, under setting [1], the AC50 is 20.6 µM [rising, partial curve, poor fit]. On to `CC1CCN(C(=O)CCCC(=O)N2CCC(C)CC2)CC1`, for which the AC50 under setting [1] was 5.62 µM [falling, partial curve]. In the case of `COc1cc(OC)c2c(-c3ccccc3)cc(=O)oc2c1C(CCN1CCCC(C)C1)c1ccc2c(c1)OCO2` (stereo unspecified), the AC50 under setting [1] was 35.5 µM [falling, single point]. Still for that read-out and setting: in the case of `O=C(NCc1ccccc1Br)c1ccc2c(c1)OCCO2` it was 7.94 µM [falling, partial curve, poor fit]. Same read-out and setting: in the case of `COc1cc(C2CC(c3cccnc3)=NN2c2ccc(F)cc2)cc(OC)c1OC` (stereo unspecified) it was 5.62 µM [rising, single point]; in that of `O=C(NCc1cccnc1)c1ccccc1Br`, 4.61 µM [rising, single point].

Take `COc1ccc(C(C)(C)C)cc1NC(=O)COC(=O)c1cc(SC)ccc1Cl`: the AC50 under setting [1] is 29.1 µM [rising, single point]. Consider `CCC(C)n1c(NC(=O)c2ccccc2)c(C#N)c2nc3ccccc3nc21` (stereo unspecified), for which the AC50 under setting [1] was 7.94 µM [rising, partial curve] and the half-maximal activity concentration (AC50) under setting [2] is 5.01 µM [falling, full curve].

Consider `COc1cc2c(cc1OC)[C@H](C)N(C(=O)NCc1ccccc1)CC2`, for which the AC50 under setting [1] was 35.5 µM [rising, partial curve, poor fit]. Regarding `CC(C)=Cc1oc2ccc([N+](=O)[O-])cc2c1N1CCOCC1`, the AC50 under setting [1] is 20 µM [rising, partial curve, poor fit]. On to `CCC(=O)Oc1ccc(C(=O)Nc2ccc([N+](=O)[O-])cc2)cc1`, for which the AC50 under setting [1] is 7.94 µM [falling, partial curve].

Regarding `COc1ccc(N2CCN(C(=O)CN(C3CCCCC3)S(C)(=O)=O)CC2)cc1`, under setting [1], the AC50 is 35.5 µM [rising, partial curve, poor fit]. `CCN(c1ccccc1)S(=O)(=O)c1ccc(Cl)c(NC(=O)Nc2ccc(Cl)cc2C#N)c1`: the concentration at half-maximal activity (AC50) under setting [1] was 29.1 µM [falling, single point]. As for `CS(=O)(=O)Nc1cccc(C2=NN(C(=O)c3ccccc3)C(c3cccs3)C2)c1` (stereo unspecified), the AC50 under setting [1] was 35.5 µM [falling, single point]. Take `Cc1occc1C(=O)NC1CCCCCCC1`: the AC50 under setting [1] is 1.3 µM [rising, full curve, poor fit]. In the case of `CCOC(=O)C1(C)Oc2ccccc2C(C(=O)OC)=C1C(=O)OC` (stereo unspecified), the AC50 under setting [1] is 16.4 µM [rising, partial curve, poor fit]. In the case of `Cc1ccc(NC(=O)CSCC(=O)N2CCN(c3cccc(C(F)(F)F)c3)CC2)cc1`, the AC50 under setting [1] was 29.1 µM [falling, single point]. For the molecule `O=C(COCC(=O)N/N=C/c1ccc(F)cc1)N/N=C/c1ccc(F)cc1`, under setting [1], the AC50 was 6.51 µM [rising, single point]. On to `CN(C)/C=C/C(=O)c1ccc(F)cc1`, for which the AC50 under setting [1] was 12.6 µM [rising, partial curve, poor fit].

For `COc1cccc(OC)c1C(=O)OCC(=O)NC1CCCCCC1`, the AC50 under setting [1] was 32.6 µM [falling, single point]. As to `O=c1[nH]c2ccccc2nc1/C=C/c1ccccc1`, under setting [1], the concentration at half-maximal activity (AC50) is 7.94 µM [falling, partial curve, poor fit]. As for `COC(=O)c1ccc(NC(=O)CSc2nnc(-c3ccncc3)n2N)cc1`, the concentration at half-maximal activity (AC50) under setting [1] is 35.5 µM [falling, single point]. On to `CCn1cc(C(=O)NCc2ccc3c(c2)OCO3)c(=O)c2cc(F)c(N3CCN(C(=O)c4ccco4)CC3)cc21`, for which the concentration at half-maximal activity (AC50) under setting [1] is 13 µM [rising, single point]. Same read-out and setting: to `CCOC(=O)N1CCC(NC(=O)CCN2C(=O)COc3ccccc32)CC1` belongs 20.6 µM [rising, single point]; to `CCn1cc(C(=O)N(C)c2ccccc2F)c2cc(OC)c(OC)cc2c1=O`, 25.1 µM [falling, single point]; to `O=C(NCCc1ccc2c(c1)OCCO2)c1cccc(F)c1`, 16.4 µM [falling, partial curve]. The same measure, in the same setting: in the case of `CC(=O)N(C)c1nc(N)n(-c2ccccc2)n1` it was 25.1 µM [falling, partial curve, poor fit]; in that of `O=C(Nc1ncccc1Cl)c1cc2ccccc2o1`, 11.2 µM [falling, partial curve, poor fit]. `COc1cc2cc(C(c3nnnn3Cc3ccc(F)cc3)N3CCCCCC3)c(=O)[nH]c2cc1OC` (stereo unspecified): the AC50 under setting [1] is 9.2 µM [falling, partial curve]. Take `CC1(C)OC(=O)C(=NNc2ccc(C(=O)O)cc2)C(=O)O1`: the half-maximal activity concentration (AC50) under setting [1] is 10 µM [falling, partial curve]. On to `COc1ccc(OCC(=O)Nc2ccc(C(=O)Nc3ccccc3C(=O)O)cc2)cc1`, for which the AC50 under setting [1] is 12.6 µM [falling, partial curve]. Turning to `CCN(CC)CCN1C(=O)c2ccccc2NC1c1cc(OC)c(OC)c(OC)c1` (stereo unspecified), the AC50 under setting [1] was 14.1 µM [falling, single point]. On the same count and under the same terms, to `C/C(CC(=O)Nc1ccc(Cl)c(Cl)c1)=N\NC(=O)C(=O)N1CCCCC1` belongs 35.5 µM [falling, single point]; to `CCCOc1cccc(C2C(C(=O)c3ccc(C)o3)=C(O)C(=O)N2c2nc(C)c(C(C)=O)s2)c1` (stereo unspecified), 10 µM [falling, partial curve, poor fit]; to `O=C(O)c1ccccc1SCC(=O)N1CCCCC1`, 4.47 µM [rising, full curve, poor fit]. On the same count and under the same terms, in the case of `O=C(c1ccco1)N(CC1CCCO1)c1nc(-c2ccccc2)cs1` (stereo unspecified) it was 10 µM [rising, partial curve, poor fit]. For the molecule `CCOC(=O)c1c(CS(=O)(=O)c2ccccc2)n(C)c2cc(Br)c(O)cc12`, under setting [1], the half-maximal activity concentration (AC50) was 12.6 µM [falling, single point].

Consider `CC(C)n1cnc2c(NCc3ccccc3)cc(N[C@@H](CO)Cc3ccccc3)cc21`, for which the concentration at half-maximal activity (AC50) under setting [1] was 20.6 µM [falling, single point]. On to `O=[N+]([O-])c1ccc(Cl)cc1CNc1ccc(F)c(F)c1`, for which the AC50 under setting [1] is 23.1 µM [rising, partial curve]. In the case of `Cc1nc2c(-c3ccc(Cl)cc3)cnn2c(N)c1-c1ccc(F)cc1`, the AC50 under setting [1] is 1.58 µM [rising, partial curve, poor fit]. Turning to `CN(C)/C=N/c1ncc(C(=O)c2ccccc2)s1`, the half-maximal activity concentration (AC50) under setting [1] was 8.2 µM [falling, partial curve, poor fit].

With `O=C(c1sccc1Br)N1CCN(Cc2ccc3c(c2)OCO3)CC1`, under setting [1], the AC50 was 2 µM [rising, partial curve]. Turning to `COc1cc(/C=C/C(=O)OCC(=O)Nc2ccc(S(=O)(=O)N3CCCC3)cc2)ccc1O`, the AC50 under setting [1] was 2.59 µM [falling, partial curve, poor fit].

On to `CN(C)CCNC(=O)c1cc2sc3ccccc3c2s1`, for which the concentration at half-maximal activity (AC50) under setting [1] is 28.2 µM [falling, single point]. Same read-out and setting: to `N/C(=N\OC(=O)c1ccc([N+](=O)[O-])cc1)c1ccccn1` belongs 2.51 µM [falling, full curve]. On the same count and under the same terms, to `CCCn1c(C)cc(/C=C(\C#N)C(=O)OCC(=O)Nc2cccc(S(N)(=O)=O)c2)c1C` belongs 29.1 µM [falling, single point]; to `Cc1ccc(Nc2nc(-c3ccccc3)cs2)nc1`, 0.0794 µM [falling, full curve]; to `CC1CCCCN1C(=O)c1cc(Cl)ccc1[N+](=O)[O-]` (stereo unspecified), 4.61 µM [falling, partial curve, poor fit]. With `CCCc1noc(-c2ccc(-c3ccccc3)cc2)n1`, the half-maximal activity concentration (AC50) under setting [1] is 35.5 µM [rising, single point]. Turning to `Cc1cc(C)nc(NC(=O)/C=C/c2ccccc2Cl)c1`, the AC50 under setting [1] was 18.4 µM [falling, partial curve]. On the same count and under the same terms, in the case of `COc1cccc(C2(O)CCN(CC(=O)NCC3CC3)CC2)c1` it was 35.5 µM [rising, partial curve, poor fit]. Regarding `CS(=O)(=O)c1ncc(Cl)c(C(=O)Nc2ccc(OC(F)F)cc2)n1`, the AC50 is 10 µM [falling, partial curve, poor fit] under setting [1] and 15.8 µM [rising, partial curve, poor fit] under setting [2].

Turning to `O=C(Nc1nccs1)c1ccc2c(=O)n3c(nc2c1)CCCCC3`, the AC50 is, setting by setting: under setting [1], 18.4 µM [falling, partial curve, poor fit]; under setting [2], 18.4 µM [rising, partial curve, poor fit]. Take `O=C(Nc1ccc(F)cc1F)c1csc(-c2ccncc2)n1`: the AC50 under setting [1] is 35.5 µM [falling, single point]. Turning to `COc1ccc(NC(=O)COC(=O)CCc2nc3ccccc3c(=O)[nH]2)c(OC)c1`, the concentration at half-maximal activity (AC50) under setting [1] is 0.58 µM [rising, partial curve, poor fit]. Turning to `Cc1cc(C(=O)CSc2nc3ccccc3n2C)c(C)n1C`, the concentration at half-maximal activity (AC50) under setting [1] was 8.2 µM [falling, partial curve, poor fit]. Turning to `N#C/C(=C\c1ccc(OCC(N)=O)cc1)C(=O)NC1CC1`, the concentration at half-maximal activity (AC50) under setting [1] was 2.24 µM [falling, partial curve, poor fit]. With `O=C(Nc1ccccc1)C1=C[C@H](C2CCCCC2)C[C@H](OCc2ccc(CO)cc2)O1`, the AC50 under setting [1] was 35.5 µM [falling, single point].

Turning to `CCNC(=O)COc1ccc(/C=C2\COc3ccccc3C2=O)cc1OC`, the AC50 under setting [1] is 7.94 µM [falling, partial curve]. Consider `Cc1c(C#N)c2ncn(Cc3ccccc3)c(=O)c2n1-c1ccccc1`, for which the AC50 under setting [1] was 8.91 µM [rising, single point].
